Experimental data published in the supplement of paper PMC10849652.
The other results are listed elsewhere or left out.

Protein sequences, listed by entry. Tags and fused reporters are not part of them. Lines headed by an entry give the natural chain unless they say otherwise; changes in a name come on top.
UniProt Q15233: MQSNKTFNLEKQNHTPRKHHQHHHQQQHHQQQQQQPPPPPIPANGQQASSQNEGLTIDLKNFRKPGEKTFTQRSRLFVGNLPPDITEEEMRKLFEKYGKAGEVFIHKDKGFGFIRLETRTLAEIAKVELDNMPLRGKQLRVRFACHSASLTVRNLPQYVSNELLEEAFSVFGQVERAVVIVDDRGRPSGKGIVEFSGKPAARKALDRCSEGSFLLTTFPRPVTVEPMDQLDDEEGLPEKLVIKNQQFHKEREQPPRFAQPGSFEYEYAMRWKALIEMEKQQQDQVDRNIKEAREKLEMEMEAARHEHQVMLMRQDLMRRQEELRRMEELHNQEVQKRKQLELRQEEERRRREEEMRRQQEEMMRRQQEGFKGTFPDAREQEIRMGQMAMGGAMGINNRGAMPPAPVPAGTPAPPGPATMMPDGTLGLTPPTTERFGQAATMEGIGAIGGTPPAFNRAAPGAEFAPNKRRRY
UniProt Q9BSD7: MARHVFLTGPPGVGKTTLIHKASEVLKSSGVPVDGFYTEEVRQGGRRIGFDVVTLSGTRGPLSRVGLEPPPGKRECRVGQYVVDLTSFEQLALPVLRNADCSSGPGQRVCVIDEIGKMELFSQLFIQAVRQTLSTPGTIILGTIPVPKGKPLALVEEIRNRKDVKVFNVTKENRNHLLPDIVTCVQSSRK
UniProt Q8WUM0: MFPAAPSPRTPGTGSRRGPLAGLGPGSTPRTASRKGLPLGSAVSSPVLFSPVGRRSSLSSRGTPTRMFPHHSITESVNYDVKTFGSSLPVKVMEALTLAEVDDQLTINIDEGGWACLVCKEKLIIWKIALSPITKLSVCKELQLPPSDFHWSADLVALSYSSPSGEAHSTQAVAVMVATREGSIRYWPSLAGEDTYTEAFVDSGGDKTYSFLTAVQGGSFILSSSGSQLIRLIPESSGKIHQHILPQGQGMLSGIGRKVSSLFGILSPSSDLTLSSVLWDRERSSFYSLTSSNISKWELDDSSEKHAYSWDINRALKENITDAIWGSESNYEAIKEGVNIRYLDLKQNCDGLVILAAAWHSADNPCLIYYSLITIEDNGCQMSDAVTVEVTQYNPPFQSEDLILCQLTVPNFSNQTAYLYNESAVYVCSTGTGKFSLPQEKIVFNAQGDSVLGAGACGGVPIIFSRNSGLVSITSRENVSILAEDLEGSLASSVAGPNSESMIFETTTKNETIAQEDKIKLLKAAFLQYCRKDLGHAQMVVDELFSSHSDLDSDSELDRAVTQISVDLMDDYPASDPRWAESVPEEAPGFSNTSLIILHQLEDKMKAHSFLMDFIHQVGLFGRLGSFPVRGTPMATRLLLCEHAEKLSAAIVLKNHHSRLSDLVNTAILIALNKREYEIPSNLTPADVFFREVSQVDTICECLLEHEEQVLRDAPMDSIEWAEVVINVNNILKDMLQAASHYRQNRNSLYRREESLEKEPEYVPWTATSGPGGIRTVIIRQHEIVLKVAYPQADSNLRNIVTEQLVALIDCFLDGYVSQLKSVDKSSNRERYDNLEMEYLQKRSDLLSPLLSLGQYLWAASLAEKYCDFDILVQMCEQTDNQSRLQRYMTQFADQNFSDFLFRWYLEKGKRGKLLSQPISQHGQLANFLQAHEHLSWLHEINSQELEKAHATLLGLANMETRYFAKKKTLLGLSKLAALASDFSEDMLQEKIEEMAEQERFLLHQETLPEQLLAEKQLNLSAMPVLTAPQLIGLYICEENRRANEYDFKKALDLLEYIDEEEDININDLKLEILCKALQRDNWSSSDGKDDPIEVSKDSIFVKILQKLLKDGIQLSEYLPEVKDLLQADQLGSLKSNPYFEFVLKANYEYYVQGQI
UniProt Q16656: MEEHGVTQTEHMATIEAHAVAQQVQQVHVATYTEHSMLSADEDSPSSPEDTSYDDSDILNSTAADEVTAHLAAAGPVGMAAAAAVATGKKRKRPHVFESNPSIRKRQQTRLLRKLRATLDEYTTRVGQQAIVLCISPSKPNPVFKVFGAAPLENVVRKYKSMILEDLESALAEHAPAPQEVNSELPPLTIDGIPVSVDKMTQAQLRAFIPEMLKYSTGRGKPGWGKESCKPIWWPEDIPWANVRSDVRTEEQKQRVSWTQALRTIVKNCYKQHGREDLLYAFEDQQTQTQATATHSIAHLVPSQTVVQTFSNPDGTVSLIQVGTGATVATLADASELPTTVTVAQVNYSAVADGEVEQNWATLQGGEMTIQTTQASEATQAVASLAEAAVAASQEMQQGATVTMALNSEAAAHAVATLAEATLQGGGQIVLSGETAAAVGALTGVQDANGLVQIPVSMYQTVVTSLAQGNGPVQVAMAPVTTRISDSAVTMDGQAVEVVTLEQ
UniProt Q9NXX6: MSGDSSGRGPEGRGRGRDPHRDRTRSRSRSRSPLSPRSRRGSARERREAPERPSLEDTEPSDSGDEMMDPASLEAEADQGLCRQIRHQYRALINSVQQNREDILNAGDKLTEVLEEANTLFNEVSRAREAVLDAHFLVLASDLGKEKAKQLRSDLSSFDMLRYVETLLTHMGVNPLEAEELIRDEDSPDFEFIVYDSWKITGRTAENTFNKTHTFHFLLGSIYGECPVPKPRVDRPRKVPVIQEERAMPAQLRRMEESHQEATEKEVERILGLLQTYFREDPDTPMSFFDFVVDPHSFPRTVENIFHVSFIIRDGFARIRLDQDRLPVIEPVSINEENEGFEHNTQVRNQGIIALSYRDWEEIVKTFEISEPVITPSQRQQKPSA
UniProt Q9Y5A7: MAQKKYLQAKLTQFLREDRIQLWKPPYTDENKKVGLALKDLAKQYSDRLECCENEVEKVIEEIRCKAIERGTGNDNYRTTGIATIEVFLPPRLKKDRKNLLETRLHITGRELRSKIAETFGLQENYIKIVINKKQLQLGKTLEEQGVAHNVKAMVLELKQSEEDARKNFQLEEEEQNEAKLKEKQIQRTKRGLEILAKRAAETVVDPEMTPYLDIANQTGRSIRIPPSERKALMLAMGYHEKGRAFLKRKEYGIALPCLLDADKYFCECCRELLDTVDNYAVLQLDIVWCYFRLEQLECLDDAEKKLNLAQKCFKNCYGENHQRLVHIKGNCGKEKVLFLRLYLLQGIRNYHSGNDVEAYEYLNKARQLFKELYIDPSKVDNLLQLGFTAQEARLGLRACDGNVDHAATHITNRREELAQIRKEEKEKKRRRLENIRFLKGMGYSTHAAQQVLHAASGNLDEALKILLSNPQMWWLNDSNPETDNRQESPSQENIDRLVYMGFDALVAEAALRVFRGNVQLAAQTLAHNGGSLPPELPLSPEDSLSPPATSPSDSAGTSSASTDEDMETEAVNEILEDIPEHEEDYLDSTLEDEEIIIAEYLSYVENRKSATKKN
UniProt Q96P11: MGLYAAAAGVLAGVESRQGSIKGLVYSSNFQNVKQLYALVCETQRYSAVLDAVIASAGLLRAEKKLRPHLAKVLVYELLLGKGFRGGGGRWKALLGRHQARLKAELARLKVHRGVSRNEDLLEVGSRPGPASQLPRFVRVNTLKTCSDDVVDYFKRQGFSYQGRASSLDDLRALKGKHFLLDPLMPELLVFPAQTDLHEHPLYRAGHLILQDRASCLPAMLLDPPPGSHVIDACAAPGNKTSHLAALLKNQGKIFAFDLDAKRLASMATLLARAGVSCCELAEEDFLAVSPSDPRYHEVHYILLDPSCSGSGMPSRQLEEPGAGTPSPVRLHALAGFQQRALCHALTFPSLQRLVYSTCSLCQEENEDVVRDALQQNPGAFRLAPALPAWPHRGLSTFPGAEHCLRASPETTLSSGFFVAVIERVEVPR
UniProt Q14978: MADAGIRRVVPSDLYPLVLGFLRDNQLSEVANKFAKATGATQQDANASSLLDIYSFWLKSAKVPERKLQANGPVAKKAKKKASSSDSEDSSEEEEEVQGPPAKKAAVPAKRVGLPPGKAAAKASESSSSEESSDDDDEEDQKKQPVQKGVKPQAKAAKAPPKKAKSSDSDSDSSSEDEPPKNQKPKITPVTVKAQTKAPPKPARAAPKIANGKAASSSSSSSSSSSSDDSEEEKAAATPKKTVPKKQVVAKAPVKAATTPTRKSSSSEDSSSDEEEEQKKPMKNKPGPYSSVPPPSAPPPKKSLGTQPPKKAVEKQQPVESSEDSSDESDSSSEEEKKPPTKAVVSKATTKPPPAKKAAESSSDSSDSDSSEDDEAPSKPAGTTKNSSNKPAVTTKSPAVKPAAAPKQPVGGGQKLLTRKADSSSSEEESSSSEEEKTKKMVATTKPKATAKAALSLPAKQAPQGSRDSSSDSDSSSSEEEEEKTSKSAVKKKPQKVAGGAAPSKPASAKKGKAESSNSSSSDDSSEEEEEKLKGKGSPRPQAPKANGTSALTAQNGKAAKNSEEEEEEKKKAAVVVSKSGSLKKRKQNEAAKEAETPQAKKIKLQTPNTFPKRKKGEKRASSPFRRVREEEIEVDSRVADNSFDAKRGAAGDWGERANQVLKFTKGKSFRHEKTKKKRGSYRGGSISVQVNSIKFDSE
UniProt P57740: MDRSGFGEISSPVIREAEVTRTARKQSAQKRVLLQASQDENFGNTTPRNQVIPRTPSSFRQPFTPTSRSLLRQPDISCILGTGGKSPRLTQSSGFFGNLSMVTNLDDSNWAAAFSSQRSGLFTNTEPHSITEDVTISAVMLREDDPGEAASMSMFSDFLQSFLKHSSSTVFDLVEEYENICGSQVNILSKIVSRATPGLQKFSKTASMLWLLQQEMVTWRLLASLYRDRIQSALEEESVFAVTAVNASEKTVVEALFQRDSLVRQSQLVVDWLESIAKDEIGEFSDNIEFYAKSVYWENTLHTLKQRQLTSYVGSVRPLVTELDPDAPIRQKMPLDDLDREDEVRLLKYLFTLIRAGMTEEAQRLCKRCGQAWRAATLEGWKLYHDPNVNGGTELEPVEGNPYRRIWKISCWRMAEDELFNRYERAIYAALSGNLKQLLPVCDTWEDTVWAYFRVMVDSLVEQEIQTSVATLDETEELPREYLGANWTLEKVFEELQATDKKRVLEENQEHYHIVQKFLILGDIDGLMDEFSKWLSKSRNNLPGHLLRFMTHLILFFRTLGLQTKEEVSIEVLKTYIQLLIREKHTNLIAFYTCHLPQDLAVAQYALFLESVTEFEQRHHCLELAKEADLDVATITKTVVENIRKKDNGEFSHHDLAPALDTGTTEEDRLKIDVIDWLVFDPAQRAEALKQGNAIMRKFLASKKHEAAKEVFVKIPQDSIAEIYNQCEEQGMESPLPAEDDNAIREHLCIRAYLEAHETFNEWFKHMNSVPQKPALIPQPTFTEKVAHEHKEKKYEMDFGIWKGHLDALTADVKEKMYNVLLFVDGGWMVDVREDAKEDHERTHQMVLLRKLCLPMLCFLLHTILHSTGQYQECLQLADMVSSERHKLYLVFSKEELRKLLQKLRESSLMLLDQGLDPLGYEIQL
UniProt Q9H1E3: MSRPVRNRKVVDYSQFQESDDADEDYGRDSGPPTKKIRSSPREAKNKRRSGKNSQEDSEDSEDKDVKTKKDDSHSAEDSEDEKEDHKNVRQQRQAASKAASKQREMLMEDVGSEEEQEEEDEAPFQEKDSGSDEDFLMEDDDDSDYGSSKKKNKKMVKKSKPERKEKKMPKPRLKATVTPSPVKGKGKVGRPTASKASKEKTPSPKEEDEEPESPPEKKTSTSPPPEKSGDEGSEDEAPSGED
UniProt Q9UNZ2: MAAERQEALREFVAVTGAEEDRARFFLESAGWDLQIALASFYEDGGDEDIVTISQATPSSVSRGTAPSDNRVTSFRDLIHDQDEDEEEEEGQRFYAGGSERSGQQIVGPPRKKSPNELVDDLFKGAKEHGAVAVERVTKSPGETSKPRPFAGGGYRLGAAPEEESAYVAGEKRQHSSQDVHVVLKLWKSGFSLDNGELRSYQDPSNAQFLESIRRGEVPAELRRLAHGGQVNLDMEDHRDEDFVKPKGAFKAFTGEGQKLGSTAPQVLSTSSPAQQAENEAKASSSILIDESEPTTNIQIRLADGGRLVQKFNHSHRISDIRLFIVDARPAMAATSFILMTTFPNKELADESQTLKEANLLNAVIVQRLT
UniProt Q86UY8: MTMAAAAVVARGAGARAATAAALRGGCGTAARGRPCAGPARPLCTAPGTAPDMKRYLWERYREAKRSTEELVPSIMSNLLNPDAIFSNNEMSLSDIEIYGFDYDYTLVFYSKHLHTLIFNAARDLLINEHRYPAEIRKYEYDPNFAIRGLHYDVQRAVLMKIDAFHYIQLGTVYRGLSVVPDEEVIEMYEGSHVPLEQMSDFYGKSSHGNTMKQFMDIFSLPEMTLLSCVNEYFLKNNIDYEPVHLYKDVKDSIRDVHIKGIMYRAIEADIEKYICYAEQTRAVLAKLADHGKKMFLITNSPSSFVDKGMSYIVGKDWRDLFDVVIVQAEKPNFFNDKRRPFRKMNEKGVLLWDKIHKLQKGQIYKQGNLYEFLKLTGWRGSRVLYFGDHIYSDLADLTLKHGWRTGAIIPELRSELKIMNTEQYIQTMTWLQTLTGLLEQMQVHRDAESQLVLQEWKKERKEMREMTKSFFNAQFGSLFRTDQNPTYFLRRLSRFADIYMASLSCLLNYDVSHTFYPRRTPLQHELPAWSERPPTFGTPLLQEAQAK

Experiments:
Assay in all cases: log2 fold change, soluble protein after heating vs DMSO (PISA); higher = thermal stabilisation; K562 lysate, 10 uM; active = over 0.2 and 3.5 SD of the protein, either way, in both replicates (recomputed)
vemurafenib = compound: CCCS(=O)(=O)Nc1ccc(F)c(C(=O)c2c[nH]c3ncc(-c4ccc(Cl)cc4)cc23)c1F [vemurafenib]
Procedure, shortened: (§1)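 Values give the log-two fold change in thermal stability against solvent controls, from duplicates. Crude K562 extract at 1 mg/mL protein, made by dounce homogenisation in PBS pH 7.4 with 1 mM MgCl2, was treated with 10 μM compound for 30 min. After 3 min heating across 48°C-58°C, aliquots were pooled, adjusted to 0.5% NP-40 at 4°C and centrifuged at 21,000xg for 90 min. The supernatant was measured by TMTpro 16plex LC-MS/MS with channel sums equalised.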

[1] = compound: CCCS(=O)(=O)Nc1ccc(F)c(C(=O)c2c[nH]c3ncc(Cl)cc23)c1F
Procedure, shortened: as §1

barasertib = compound: CCN(CCCOc1ccc2c(Nc3cc(CC(=O)Nc4cccc(F)c4)[nH]n3)ncnc2c1)CCOP(=O)(O)O [barasertib]
Procedure, shortened: as §1

[2] = compound: CC[C@@H]1C(=O)N(C)c2cnc(Nc3ccc(C(=O)NC4CCN(C)CC4)cc3OC)nc2N1C1CCCC1
Procedure, shortened: as §1

volasertib = compound: CC[C@@H]1C(=O)N(C)c2cnc(Nc3ccc(C(=O)N[C@H]4CC[C@H](N5CCN(CC6CC6)CC5)CC4)cc3OC)nc2N1C(C)C [volasertib]
Procedure, shortened: as §1

[3] = compound: CCn1c(C(=O)N(C2CC2)C2CC2)cc2c3c(ncn3C)c(Nc3cc(C)n(C)n3)nc21
Procedure, shortened: as §1

[4] = compound: CCn1cc(-c2ccnc3[nH]c(-c4cccc(CN(C)C)c4)cc23)c(-c2ccc(NC(=O)N(C)C)cc2)n1
Procedure, shortened: as §1

[5] = compound: CN1CCC(CNc2ccc3ncc(-c4cccc(OC(F)(F)F)c4)n3n2)CC1
Procedure, shortened: as §1

saracatinib = compound: CN1CCN(CCOc2cc(OC3CCOCC3)c3c(Nc4c(Cl)ccc5c4OCO5)ncnc3c2)CC1 [saracatinib]
Procedure, shortened: as §1

sotrastaurin = compound: CN1CCN(c2nc(C3=C(c4c[nH]c5ccccc45)C(=O)NC3=O)c3ccccc3n2)CC1 [sotrastaurin]
Procedure, shortened: as §1

alvocidib = compound: CN1CC[C@H](c2c(O)cc(O)c3c(=O)cc(-c4ccccc4Cl)oc23)[C@H](O)C1 [alvocidib]
Procedure, shortened: as §1

Tubastatin A = compound: CN1CCc2c(c3ccccc3n2Cc2ccc(C(=O)NO)cc2)C1 [Tubastatin A]
Procedure, shortened: as §1

[6] = compound: CNC(=O)C1=CC=CC=C1NC2=NC(=NC=C2Cl)NC3=C(C=C(C=C3)N4CCOCC4)OC
Procedure, shortened: as §1

defactinib = compound: CNC(=O)c1ccc(Nc2ncc(C(F)(F)F)c(NCc3nccnc3N(C)S(C)(=O)=O)n2)cc1 [defactinib]
Procedure, shortened: as §1

[7] = compound: CNc1nc(-c2ccc3c(N)n[nH]c3c2)cc(N2C[C@@H](C(=O)NC3CCCCC3)CC[C@H]2C)n1
Procedure, shortened: as §1

encorafenib = compound: COC(=O)N[C@@H](C)CNc1nccc(-c2cn(C(C)C)nc2-c2cc(Cl)cc(NS(C)(=O)=O)c2F)n1 [encorafenib]
Procedure, shortened: as §1

[8] = compound: COC(=O)[C@H](CCSC)NC(=O)C1=C(C=C(C=C1)NC[C@H](CS)N)C2=CC=CC=C2
Procedure, shortened: as §1

alisertib = compound: COc1cc(Nc2ncc3c(n2)-c2ccc(Cl)cc2C(c2c(F)cccc2OC)=NC3)ccc1C(=O)O [alisertib]
Procedure, shortened: as §1

[9] = compound: COc1cc2nc(-c3cc(F)ccc3O)nc(N[C@@H]3CNC[C@H]3C(C)(C)O)c2cc1OC
Procedure, shortened: as §1

gefitinib = compound: COc1cc2ncnc(Nc3ccc(F)c(Cl)c3)c2cc1OCCCN1CCOCC1 [gefitinib]
Procedure, shortened: as §1

Measured: log2 fold change

NMNAT1 (UniProt Q9HAN9)
inactive: vemurafenib 0.064 | [1] 0.023 | barasertib -0.011 | [2] -0.026 | volasertib -0.003 | [3] 0 | [4] 0.037 | [5] -0.009 | saracatinib 0.001 | sotrastaurin 0.019 | alvocidib 0.037 | Tubastatin A -0.021 | [6] 0.011 | defactinib -0.027 | [7] -0.001 | encorafenib 0.011 | [8] 0.124 | alisertib 0.012 | [9] 0.002 | gefitinib 0.074

NONO (UniProt Q15233)
inactive: vemurafenib -0.005 | [1] 0.018 | barasertib -0.006 | [2] -0.032 | volasertib -0.049 | [3] 0 | [4] 0.076 | [5] -0.043 | saracatinib 0.004 | sotrastaurin -0.015 | alvocidib 0.049 | Tubastatin A -0.126 | [6] 0.04 | defactinib -0.01 | [7] 0.014 | encorafenib 0.011 | [8] 0.102 | alisertib 0.026 | [9] -0.004 | gefitinib 0.007

NUDT3 (UniProt O95989)
inactive: vemurafenib -0.017 | [1] -0.013 | barasertib -0.012 | [2] 0.004 | volasertib 0.002 | [3] 0.049 | [4] 0.054 | [5] 0.113 | saracatinib 0.022 | sotrastaurin -0.05 | alvocidib -0.015 | Tubastatin A -0.012 | [6] -0.018 | defactinib -0.001 | [7] -0.008 | encorafenib 0.009 | [8] -0.04 | alisertib 0.042 | [9] -0.007 | gefitinib -0.009

NTPCR (UniProt Q9BSD7)
inactive: vemurafenib 0.055 | [1] -0.001 | barasertib 0.016 | [2] 0.005 | volasertib -0.066 | [3] 0.032 | [4] -0.038 | [5] -0.021 | saracatinib -0.009 | sotrastaurin 0.011 | alvocidib 0.007 | Tubastatin A -0.163 | [6] 0.055 | defactinib 0.009 | [7] 0.027 | encorafenib 0.005 | [8] -0.007 | alisertib 0.007 | [9] 0.058 | gefitinib -0.057

NUP133 (UniProt Q8WUM0)
inactive: vemurafenib 0.009 | [1] 0.014 | barasertib 0.01 | [2] -0.028 | volasertib -0.081 | [3] 0.05 | [4] -0.047 | [5] 0.04 | saracatinib 0.014 | sotrastaurin 0.038 | alvocidib -0.08 | Tubastatin A -0.111 | [6] -0.007 | defactinib 0.035 | [7] -0.028 | encorafenib 0.039 | [8] 0.002 | alisertib -0.009 | [9] 0.011 | gefitinib -0.003

NRF1 isoform 4 (UniProt Q16656)
inactive: vemurafenib 0.016 | [1] 0.055 | barasertib 0.052 | [2] -0.007 | volasertib 0 | [3] -0.005 | [4] 0.004 | [5] -0.085 | saracatinib 0.039 | sotrastaurin 0.012 | alvocidib -0.044 | Tubastatin A 0.003 | [6] 0.03 | defactinib -0.017 | [7] -0.003 | encorafenib -0.013 | [8] -0.041 | alisertib 0.037 | [9] -0.017 | gefitinib -0.031

NSMCE4A (UniProt Q9NXX6)
inactive: vemurafenib -0.069 | [1] -0.004 | barasertib 0.017 | [2] -0.074 | volasertib -0.041 | [3] 0.011 | [4] 0.022 | [5] -0.07 | saracatinib -0.027 | sotrastaurin 0.011 | alvocidib -0.013 | Tubastatin A -0.03 | [6] 0.13 | defactinib 0.009 | [7] 0.001 | encorafenib 0.013 | [8] 0.015 | alisertib -0.008 | [9] 0.003 | gefitinib 0.049

NUB1 (UniProt Q9Y5A7)
inactive: vemurafenib -0.007 | [1] 0.011 | barasertib 0.028 | [2] -0.052 | volasertib -0.056 | [3] 0 | [4] 0.008 | [5] -0.048 | saracatinib -0.009 | sotrastaurin 0.021 | alvocidib 0.033 | Tubastatin A -0.095 | [6] 0.037 | defactinib -0.007 | [7] 0.014 | encorafenib 0.022 | [8] 0.038 | alisertib -0.012 | [9] -0.004 | gefitinib -0.049

NSUN5 isoform 2 (UniProt Q96P11)
inactive: vemurafenib 0.002 | [1] 0.009 | barasertib 0.08 | [2] -0.036 | volasertib -0.04 | [3] 0.053 | [4] -0.074 | [5] -0.011 | saracatinib 0.012 | sotrastaurin 0.033 | alvocidib 0.029 | Tubastatin A -0.049 | [6] -0.015 | defactinib 0.003 | [7] -0.08 | encorafenib 0.004 | [8] -0.005 | alisertib -0.004 | [9] 0.018 | gefitinib 0.038

NOC4L (UniProt Q9BVI4)
inactive: vemurafenib -0.036 | [1] 0.046 | barasertib -0.057 | [2] -0.059 | volasertib -0.017 | [3] 0.021 | [4] 0.035 | [5] -0.096 | saracatinib -0.001 | sotrastaurin 0.032 | alvocidib 0.026 | Tubastatin A -0.1 | [6] -0.006 | defactinib -0.039 | [7] 0.038 | encorafenib 0.118 | [8] 0.083 | alisertib -0.019 | [9] -0.035 | gefitinib -0.047

NOLC1 isoform 2 (UniProt Q14978)
inactive: vemurafenib -0.012 | [1] 0.009 | barasertib 0.01 | [2] -0.027 | volasertib 0.019 | [3] 0 | [4] -0.066 | [5] 0.027 | saracatinib -0.009 | sotrastaurin -0.034 | alvocidib -0.035 | Tubastatin A 0.059 | [6] -0.018 | defactinib -0.01 | [7] 0.04 | encorafenib 0.007 | [8] -0.021 | alisertib 0 | [9] 0.041 | gefitinib 0.006

NUP107 (UniProt P57740)
inactive: vemurafenib 0.039 | [1] 0.014 | barasertib -0.013 | [2] -0.001 | volasertib -0.08 | [3] 0.039 | [4] -0.065 | [5] 0.02 | saracatinib 0.014 | sotrastaurin 0.049 | alvocidib 0.003 | Tubastatin A -0.179 | [6] 0.044 | defactinib -0.028 | [7] -0.021 | encorafenib 0.069 | [8] -0.037 | alisertib -0.009 | [9] 0.004 | gefitinib -0.021

2 neighbouring records out of the list so far, for reference:
NOLC1 isoform 2 (UniProt Q14978)
inactive: vemurafenib -0.012 | [1] 0.009 | barasertib 0.01 | [2] -0.027 | volasertib 0.019 | [3] 0 | [4] -0.066 | [5] 0.027 | saracatinib -0.009 | sotrastaurin -0.034 | alvocidib -0.035 | Tubastatin A 0.059 | [6] -0.018 | defactinib -0.01 | [7] 0.04 | encorafenib 0.007 | [8] -0.021 | alisertib 0 | [9] 0.041 | gefitinib 0.006

NUP107 (UniProt P57740)
inactive: vemurafenib 0.039 | [1] 0.014 | barasertib -0.013 | [2] -0.001 | volasertib -0.08 | [3] 0.039 | [4] -0.065 | [5] 0.02 | saracatinib 0.014 | sotrastaurin 0.049 | alvocidib 0.003 | Tubastatin A -0.179 | [6] 0.044 | defactinib -0.028 | [7] -0.021 | encorafenib 0.069 | [8] -0.037 | alisertib -0.009 | [9] 0.004 | gefitinib -0.021

Additional results:

NUCKS1 (UniProt Q9H1E3)
inactive: vemurafenib 0.006 | [1] -0.006 | barasertib -0.001 | [2] 0.057 | volasertib 0.017 | [3] -0.022 | [4] -0.012 | [5] -0.007 | saracatinib 0.043 | sotrastaurin -0.025 | alvocidib -0.009 | Tubastatin A 0.055 | [6] -0.001 | defactinib 0.02 | [7] 0.08 | encorafenib -0.026 | [8] -0.02 | alisertib 0.025 | [9] 0.01 | gefitinib -0.009

NSFL1C isoform 5 (UniProt Q9UNZ2)
inactive: vemurafenib -0.025 | [1] 0.006 | barasertib -0.041 | [2] 0.023 | volasertib 0.016 | [3] -0.002 | [4] -0.031 | [5] 0.025 | saracatinib 0.002 | sotrastaurin 0.019 | alvocidib 0.043 | Tubastatin A 0.035 | [6] 0.017 | defactinib 0.004 | [7] -0.011 | encorafenib 0.01 | [8] -0.034 | alisertib 0.011 | [9] -0.007 | gefitinib 0.009

NT5DC3 (UniProt Q86UY8)
inactive: vemurafenib -0.004 | [1] 0.001 | barasertib -0.004 | [2] 0.003 | volasertib -0.015 | [3] 0.01 | [4] -0.057 | [5] 0.043 | saracatinib -0.017 | sotrastaurin 0.049 | alvocidib -0.01 | Tubastatin A 0.042 | [6] -0.02 | defactinib 0.001 | [7] -0.043 | encorafenib -0.005 | [8] -0.012 | alisertib -0.008 | [9] -0.029 | gefitinib -0.008
